Test results from patent US20190144550A1.
No constants are given. Whether binding was seen depends on the method and setting. Some binding calls cover weakened binding; strength is not graded here.

Each binder was assayed against human EGFRvIII expressed on cells (human) (UniProt P00533) (assay: flow cytometry on cells expressing EGFRvIII (Table 8A)).

Binder	binding
12H6 (antibody, V domains shown) VH: QVTLKESGPVLVKPTETLTLTCTVSGFSLSNARMGVSWIRQPPGKALEWLAHIFSTDEKSIRRSLRSRLTLSKDTSKSQVVLTMTNMDPVDTATYYCARDSSNYEGYFDYWGQGTLVTVSS VL: EVVMTQSPATLSVSPGERATLSCRASQGVSSNFAWYQQRPGQSPRLLLYGASTRATGVPGRFSGSGSGTENILTISSLQSEDFAIYFCQQYKDWPFTFGPGSKVDIK	binds
14C11 (antibody, V domains shown) VH: QVTLKESGPVLVKPTETLTLTCTVSGFSLNNARMGVSWIRQPPGKALEWFAHIFSTDEKSFRTSLRSRLTLSKDTSKSQVVLTMTNMDPVDTATYYCARDSSNYEGYFDYWGQGILVTVSS VL: EIVMTQSPATLSVSPGERATLSCRASQSVSNNLAWYQQKPGQAPRLLIYGASTRATGVPARFSGSDSGTEFSLTISSLQSEDFAVYFCQQYKDWPFTFGPGTKVEIK	binds
12B2 (antibody, V domains shown) VH: QVTLKESGPVLVKPTETLTLTCTVSGFSLSNPRMGVSWIRQPPGKALEWLGHIFSSDEKSYRLSLRSRLSISKDTSKSQVVLTMTNMDPVDTATYYCVRDSSNYGGYFDYWGQGTLVTVSS VL: EVVMTQSPATLSVSPGERATLSCRASQSVINNLAWYQQKPGQAPRLLIYGTSTRATDIPARFSGSGSGTEFTLTISSLQSEDFAVYYCQDYNNWPFTFGPGTKVDIK	binds
11F10 (antibody, V domains shown) VH: QVTLKESGPVLVKPIETLTLTCTVCGFSLSNPRMGVSWIRQPPGKALEWLGHIFSSDEKSYRLFLRSRLSISKDTSKSQVVLTMTNMDPVDTATYYCARDSSDYEGYFDYWGQGTLVTVSS VL: EIVMTQSPATLSVSPGERTTLSCRASQSVGSNLAWYQQKPGQAPRLLIYGASTRASGVPARFSGSGSGTEFTLTISSLQSEDFAVYSCQEYNNWPFTFGQGTKVEIK	binds

Second part, the binder after the results:

binding	Binder
binds	42G9 (antibody, V domains shown) VH: QVTLKESGPVLLKPTETLTLTCTVSGFSLSNPRMGVSWIRQPPGKALEWFAHIFSTDEKSLKLSLRSRLTLSKDTSKSQVVLTMTNMAPVDSATYYCARDSSNYEGYFDFWGQGTLVTVSS VL: EVVLTQSPATLSVSPGERATLSCRASQSVRSNLAWYQQKSGQAPRLLIYGSTIRATGVPARFSGSGSGTEFTLTISSLQSEDFAVYYCQQYSDWPFTFGPGTKVDIK
binds	21E11 (antibody, V domains shown) VH: QVTLKESGPVLVKPTETLTLTCTVSGFSLSNVRMGVSWIRQPPGKALEWFAHIFSSDEKSIRRSLRSRLTLSKDTSKSQVVLTMTNMDPVDTATYYCARDSSNYEGYFDFWGQGTLVTVSS VL: DMVVTQSPATLSVSPGERATLSCRASQSVGSDLAWYQQPPGQSPRLLIYGASTRATGVPARFSGSGSGTDFTLTITSLESEDFAVYYCQQYNDWPFTFGPGTKVDIK
binds	49B11 (antibody, V domains shown) VH: QVTLKESGPVLVKPTETLTLTCTVSGFSLSNVRMGVSWIRQPPGKALEWFAHIFSSDEKSIRRSLRSRLTLSKDTSKSQVVLTMTNMDPVDTATYYCARDSSNYEGYFDYWGQGTLVTVSS VL: EMEVTQSPATLSVSPGERATLSCRASQNIGSDLAWYQQQSGQAPRLLISGASTRATGVPTRFSGSGSGTDFTLTITSLQSEDFAVYYCQQYNDWPFTFGPGTKVDIK
binds	29D5 (antibody, V domains shown) VH: QVTLKESGPVLVKPTETLTLTCTVSGFSLSNPRMGVSWLRQPPGKALEWFAHIFSTDEKSYSPSLRGRLTVSKDTSKSQVVLTLTNMDPVDTATYYCARDSSNYEGYFDYWGQGTLVTVSS VL: KIVMTQSPATLSVSPGERATLSCRANQIVSSNLAWYQQKPGQAPRLLVFGTSTRATGIPIRFSGSGSGTEFTLTVSSLQSEDFAVYVCQQYNDWPFTFGPGTKVDIK

The binders below were run against human EGFRvIII expressed on cells (human) (UniProt P00533) (assay: flow cytometry on cells expressing EGFRvIII (Table 8B)).

binding	Binder
binds	20E12 (antibody, V domains shown) VH: EVNLVESGGGLVKPGGSLRLSCEASGFTFSYAWMSWVRQAPGKGLEWVGRIKSIADGGATDYAAPVRNRFTISRDDSRNTLYLEMHSLKTEDTAVYYCTTIPGNDAFDMWGQGTMVTVSS VL: DIVLTQSPLSLSVTPGEPASISCRSSQSLLYSNGKNYLDWFLHKPGQSPQLLIYLGSNRASGVPDRFSGSGSGIDFILKISRVEAEDVGVYYCMQAQQTPITFGQGTRLEIK
binds	26B9 (antibody, V domains shown) VH: EVQLVESWGVLVKPGGSLRLSCAASGFIFNNAWMSWVRQAPGKGLEWIGRIKSKSDGGTTDYAAPVKDRFTISRDDSKDTLYLQMNGLKTEDTAVYFCTTAPGGPFDYWGQGTLVTVSS VL: DIVLTQSPLSLPVTPGEPASISCRSSQSLLHRDGFNYLDWFLQKPGQSPQLLIYLASSRASGVPDRFSGSDSGTDFTLKISRVEAEDVGVYYCMQALQTPITFGQGTRLEIK
binds	30D8 (antibody, V domains shown) VH: EVQLVESGGGLVKPGGSLRLSCEASGFTFSDAWMSWVRQAPGKGLEWVGRIKSKTDGGTTDYVVPLNGRFIISRDDSRNTLYLQLNNLKTEDTAVYYCTTVPGSYGYWGQGTLVTVSS VL: DIVMTQSPLSLPVTPGEPASISCRSSQSLLHNKRNNYLDWFLQKPGQSPQLLIYLASNRASGVPDRFSGGGSGTDFTLKISRVEAEDVGVYYCMQAQQTPITFGQGTRLEIK

The binders below were run against human EGFRvIII expressed on cells (human) (UniProt P00533) (assay: flow cytometry, recombinant human IgG1 antibody on F98-EGFRvIII cells).

binding	Binder
binds	42G9 (antibody, V domains shown) VH: QVTLKESGPVLLKPTETLTLTCTVSGFSLSNPRMGVSWIRQPPGKALEWFAHIFSTDEKSLKLSLRSRLTLSKDTSKSQVVLTMTNMAPVDSATYYCARDSSNYEGYFDFWGQGTLVTVSS VL: EVVLTQSPATLSVSPGERATLSCRASQSVRSNLAWYQQKSGQAPRLLIYGSTIRATGVPARFSGSGSGTEFTLTISSLQSEDFAVYYCQQYSDWPFTFGPGTKVDIK
